Data from publication PMC8660804.
For some assays here: A negative result means that nothing was seen under these conditions. For some assays here: The exact form of at least one protein or probe is not confirmed. For some assays here: At least one verdict was read from the data and is not stated in words by the source.

Sequences of proteins named here, by UniProt entry; tags and fusion partners are left off. Residues count along the entry.
UniProt P02769, 25-607: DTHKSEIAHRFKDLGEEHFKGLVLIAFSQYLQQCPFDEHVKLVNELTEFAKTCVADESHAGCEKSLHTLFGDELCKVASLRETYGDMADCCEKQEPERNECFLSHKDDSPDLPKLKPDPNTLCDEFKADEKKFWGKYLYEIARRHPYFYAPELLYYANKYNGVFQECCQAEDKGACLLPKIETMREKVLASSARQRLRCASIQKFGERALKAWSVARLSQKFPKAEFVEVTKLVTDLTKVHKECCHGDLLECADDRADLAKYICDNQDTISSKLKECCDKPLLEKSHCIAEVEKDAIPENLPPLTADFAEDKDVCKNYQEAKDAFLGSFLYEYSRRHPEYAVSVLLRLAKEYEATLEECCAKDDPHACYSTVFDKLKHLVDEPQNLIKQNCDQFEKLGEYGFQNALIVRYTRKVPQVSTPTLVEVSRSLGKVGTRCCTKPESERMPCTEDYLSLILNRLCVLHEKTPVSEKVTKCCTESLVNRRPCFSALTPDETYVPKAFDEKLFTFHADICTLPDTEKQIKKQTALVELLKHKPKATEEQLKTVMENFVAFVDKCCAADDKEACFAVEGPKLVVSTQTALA

Tests used:
[1] = tested on: Anabaena sensory rhodopsin transducer (ASRT) (Anabaena); assay: single-molecule FRET DNA cyclization (looping); settings: NaCl series, looping maximal at 50 mM Na+, Mg2+ essential for looping; NaCl varied (50 mM optimal; 1 M also used), 10 mM MgCl2 (stated for BSA control), 60 min incubation; recombinant protein
[2] = target: Bovine serum albumin (BSA) (bovine) (UniProt P02769); assay: single-molecule FRET DNA cyclization (looping); settings: 100 uM BSA, 50 mM NaCl, 10 mM MgCl2, 60 min, read-out is bending; NaCl varied (50 mM optimal; 1 M also used), 10 mM MgCl2 (stated for BSA control), 60 min incubation; commercial protein

Q: Does “CAGAATCCGTGAATATTTGTTTTCTAAATAGTAAGAATAATTGCAATCGACCTTATAAAAAGCTGCAATGACCTTTAGGAGGAAAGAAAGATGCTCGATGCTTTTTCCAAA / ACGGATTCTGTTTTGGAAAAAGCATCGAGCATCTTTCTTTCCTCCTAAAGGTCATTGCAGCTTTTTATAAGGTCGATTGCAATTATTCTTACTATTTAGAAAACAAATATTC [DNA1 (pec promoter)]” bind [1]?
A: binds

Q: Does “CAGAATCCGTGAATATTTGTTTTCTAAATAGTAAGAATAATTGCAATCGACCTTATAAAAAGCTGCAATGACCTTTAGGAGGAAAGAAAGATGCTCGATGCTTTTTCCAAA / ACGGATTCTGTTTTGGAAAAAGCATCGAGCATCTTTCTTTCCTCCTAAAGGTCATTGCAGCTTTTTATAAGGTCGATTGCAATTATTCTTACTATTTAGAAAACAAATATTC [DNA1 (pec promoter)]” bind [2]?
A: no binding
